Values quoted from earlier work, collected in US20080242544A1, “Phytoactive Composition” (priority 2004, published 2008).
Some of these results come from one statement about several compounds together.

Conditions: Table 5, no pH given; cited from earlier work

CC(Oc1ccc(Oc2cnc3cc(Cl)ccc3n2)cc1)C(=O)O (stereo not shown) [quizalofop]
Log Pow: 4.3-4.7
